Article PMC6999640
These are yes or no findings as the source states them, for the method shown. In cells and extracts the contact can be indirect. Some results given as binding are weak or reduced against the parent protein; the word gives no strength.

Molecular target: T1, ATG9A (mouse (endogenous in adult mouse brain)) (UniProt Q68FE2)
T1 sequence: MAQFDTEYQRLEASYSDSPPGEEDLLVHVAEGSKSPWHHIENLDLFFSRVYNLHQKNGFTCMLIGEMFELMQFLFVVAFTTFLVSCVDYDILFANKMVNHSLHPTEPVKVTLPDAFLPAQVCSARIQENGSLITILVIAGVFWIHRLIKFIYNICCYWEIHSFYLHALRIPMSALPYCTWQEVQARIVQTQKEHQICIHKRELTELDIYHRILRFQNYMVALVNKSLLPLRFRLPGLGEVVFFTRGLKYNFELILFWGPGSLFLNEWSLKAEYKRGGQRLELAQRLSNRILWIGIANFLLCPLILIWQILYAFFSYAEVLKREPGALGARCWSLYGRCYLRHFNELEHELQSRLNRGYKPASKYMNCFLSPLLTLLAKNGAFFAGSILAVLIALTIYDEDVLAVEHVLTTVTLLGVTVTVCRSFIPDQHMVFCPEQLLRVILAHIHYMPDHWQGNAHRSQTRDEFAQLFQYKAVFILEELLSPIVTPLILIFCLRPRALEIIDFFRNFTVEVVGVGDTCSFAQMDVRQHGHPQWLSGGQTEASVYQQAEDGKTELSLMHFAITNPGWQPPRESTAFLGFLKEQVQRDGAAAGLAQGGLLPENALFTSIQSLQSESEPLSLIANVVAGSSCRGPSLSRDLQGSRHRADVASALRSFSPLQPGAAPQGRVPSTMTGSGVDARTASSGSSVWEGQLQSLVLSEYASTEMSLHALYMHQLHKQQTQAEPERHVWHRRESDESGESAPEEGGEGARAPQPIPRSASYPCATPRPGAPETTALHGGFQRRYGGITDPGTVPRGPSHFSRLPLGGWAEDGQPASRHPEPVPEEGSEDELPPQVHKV
Experiment: co-IP; endogenous proteins; 5 mg mouse brain lysate with 1 ug antibody in HEPES buffer (50 mM HEPES, 0.5% Triton X-100, 150 mM NaCl, 1 mM EDTA) for 12 h at 4°C; protein A agarose beads; rabbit IgG control with WT lysate; western blot

B1: adaptor-related protein complex AP-4, epsilon 1 (protein, UniProt Q80V94 1-1122)
chain: MSDMVERTLTALPGLFLQNQLGGPAASRAPFFSRLGGLIRGVTALSSKHEEEKLIQQELSSLKATVSAPTTTLKTMKECMVRLIYCEMLGYDASFGYIHAIKLAQQGNLLEKRVGYLAVSLFLHESHELLLLLVNTVVKDLQSTNLVEVCMALTVVSQIFPREMIPAVLPLIEDKLQHSKEIIRRKAVLALYKFYLIAPNQVQHIHTKFRKALCDRDVGVMAASLHIYLRMIKENASGYKDLTESFVTILKQVVGGKLPVEFSYHSVPAPWLQIQLLRILGLLGKDDERTSELMYDVLDESLRRAELNHNVTYAILFECVHTIYSIYPKSELLEKAAKCIGKFVLSPKINLKYLGLKALTYVIQQDPSLALQHQITIIECLDHPDPIIKRETLELLYRITNAQNVVVIVQKMLEYLHQSKEEHIIISLVGRIAELAEKYAPDNVWFIQTMNAVFSVGGDVMHPDILSNFLRLLAEGFDDETEDQQLRLYAVQSYLTLLDMENTFYPQRFLQVMSWVLGEYSYLLDKESPEEVITRLYKLLMSDSISSETKAWLFAAVTKLTPQAHSSPLVEKLIQEFTVSLNTCLRQHAFELKHLHENTELMKSLLQGAQNCEDIVADASLSFLDGFVAEGLSQGAAPYKPHHQRQEEQLSQEKVLNFEPYGLSFSSSGFTGRQSPAGISLGSDISGNSAETGLKETSSLKMEGIKKLWGKEGYLPKKESGTGDKPEASHVPAEGATVENVDQATTRKDQAQGHIPSTEEKEKQLLASSLFVGLGPENTVDLLGKADVVSHKFRRKSKLKVAQSDKTPSAPTAPCSALSLGSDVAGGDEDGLSAVDRGDGELSSELFRSESLSGPPSAEKLESVSLPVPSLFADNNMEVFNPPSSSATSTVKEETPECRHSGLVEICSNEAVSVSSYKVWRDDCLLVIWAVTSKTDSEFTDAQLEIFPVENFKIIEQPECSSPVIETERTKSFQYSVQMESPCIEGTLSGFIKYQMMDTHSVQLEFSMNLPLLDFIRPLKISTEDFGKLWLSFANDVKQTIKISEPGVALTSVLTELQQNLRLRVIDVIGNEGLLACKLLPSTPCVLHCRVHADAVALWFRSSSSVLSDYLSCHCQKVMQTS
binding: binds
